# Test results taken from PubChem BioAssay AID2528 (National Center for Advancing Translational Sciences (NCATS), 2010).
# Amino acid sequences for entries named in this document (tags omitted). A change or cut given only in a name is not applied to a line headed by its entry.
# UniProt P54132: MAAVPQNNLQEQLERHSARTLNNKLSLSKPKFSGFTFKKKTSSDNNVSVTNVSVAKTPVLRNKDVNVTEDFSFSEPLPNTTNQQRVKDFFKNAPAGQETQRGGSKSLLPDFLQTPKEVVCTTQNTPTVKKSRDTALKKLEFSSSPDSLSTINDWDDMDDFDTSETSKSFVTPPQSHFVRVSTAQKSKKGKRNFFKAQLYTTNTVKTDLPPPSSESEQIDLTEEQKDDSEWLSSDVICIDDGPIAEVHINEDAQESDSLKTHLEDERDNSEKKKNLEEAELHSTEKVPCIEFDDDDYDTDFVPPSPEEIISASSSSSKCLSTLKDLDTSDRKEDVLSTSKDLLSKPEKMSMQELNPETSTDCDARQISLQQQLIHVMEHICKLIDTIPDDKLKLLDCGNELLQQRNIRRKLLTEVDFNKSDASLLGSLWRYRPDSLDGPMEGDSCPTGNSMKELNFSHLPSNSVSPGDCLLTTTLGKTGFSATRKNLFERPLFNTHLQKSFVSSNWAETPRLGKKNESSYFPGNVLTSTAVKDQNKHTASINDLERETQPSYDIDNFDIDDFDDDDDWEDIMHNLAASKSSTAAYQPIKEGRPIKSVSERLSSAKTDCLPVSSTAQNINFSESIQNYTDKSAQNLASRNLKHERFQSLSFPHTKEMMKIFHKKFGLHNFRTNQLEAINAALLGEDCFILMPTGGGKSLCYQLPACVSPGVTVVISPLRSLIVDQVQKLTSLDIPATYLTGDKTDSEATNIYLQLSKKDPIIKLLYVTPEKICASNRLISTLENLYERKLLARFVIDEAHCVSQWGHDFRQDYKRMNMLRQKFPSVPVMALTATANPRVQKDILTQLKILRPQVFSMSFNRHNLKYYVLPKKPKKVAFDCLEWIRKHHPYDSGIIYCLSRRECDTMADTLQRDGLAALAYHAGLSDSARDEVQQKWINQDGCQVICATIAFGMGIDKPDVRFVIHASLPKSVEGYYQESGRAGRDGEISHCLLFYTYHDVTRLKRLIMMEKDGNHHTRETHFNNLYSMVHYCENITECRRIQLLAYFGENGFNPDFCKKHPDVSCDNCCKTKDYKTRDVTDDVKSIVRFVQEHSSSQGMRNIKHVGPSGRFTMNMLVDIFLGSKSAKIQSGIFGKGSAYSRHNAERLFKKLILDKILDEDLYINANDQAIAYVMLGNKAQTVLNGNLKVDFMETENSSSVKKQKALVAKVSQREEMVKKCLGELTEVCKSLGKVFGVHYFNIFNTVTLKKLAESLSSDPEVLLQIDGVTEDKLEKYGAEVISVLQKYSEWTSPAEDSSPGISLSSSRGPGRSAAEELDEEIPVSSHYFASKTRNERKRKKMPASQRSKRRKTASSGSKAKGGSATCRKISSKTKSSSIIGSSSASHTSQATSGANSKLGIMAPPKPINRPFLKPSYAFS
# Most of the hits are listed elsewhere, so they are rarer here than in the full data. Activity calls are given as the source filed them. The call rests on the fitted dose curve; in most records, active means well fitted inhibition curve with a large enough effect; inconclusive means small, poorly fitted or top-dose-only effect; inactive means flat fitted curve, though single readings scatter.
# Molecular target: RecQ-like DNA helicase BLM (Homo sapiens) (UniProt P54132)
# Assay: qHTS Assay for Inhibitors of Bloom's syndrome helicase (BLM);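 further: plate controls were vehicle for no effect and no enzyme for full effect; nearly all actives have a fitted effect of over 35% in size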
# Settings: recombinant BLM DNA unwinding, fluorescence dequenching
# Excerpt: Survival of cells and the faithful propagation of the genome depend on elaborate mechanisms of detecting and repairing DNA damage. Treatment of advanced cancer relies on radiation therapy or chemotherapy, which kill cancer cells by causing extensive DNA damage. It is often found, that cancer cells develop resistance to therapy through enhanced activity of DNA repair functions; this has led to an increased interest in developing drugs that interfere with DNA repair, which could sensitize cancer cells to conventional therapy.
# This validation qHTS assay pertains to human BLM, which is important in resolving abnormal DNA structures formed during replication or homologous recombination. Shutting down the expression of BLM leads to chromosomal instability and higher radiation sensitivity in cultured cells.
# The validation assay was a fluorescence quenching based kinetic qHTS for BLM Helicase DNA unwinding. The activity was measured as ATP-dependent separation of a 20-bp DNA duplex extended by 30-nt single-stranded tails (forked duplex). […] Strand separation results in an increase in the fluorescence of TAMRA (excitation 525 nm, emission 598 nm). […]
# Three uL of reaction buffer (25 mM Tris-HCl (pH 8.0), 5 mM NaCl, 2 mM MgCl2, 1mM DTT, 0.01% Tween- 20, and 2.5 ug/ml poly(dI-dC), including enzyme (50 nM BLM), were dispensed into a 1536-well Greiner black assay plate via solenoid-valve based nanoliter dispensers. Compounds (23 nl each in columns 5-48) and control (23 nl each in column 2 as dose-response) were transferred via a Kalypsys pintool equipped with a 1536-pin array. The plates were incubated for 15 min at room temperature, and then 1 ul of substrates (200 nM DNA and 2 mM ATP, final concentrations) was added to start the reaction. The plate was transferred into a ViewLux high-throughput CCD imager where the reaction progress was measured in a discontinuous kinetic mode (two reads spaced 2 hours apart, with intermediate room temperature incubation of the covered assay plate) by using standard red-fluorescence optics (excitation filter 525 nm, emission filter 598 nm). […]
Compound,"activity change, negative = inhibition (at 56.1 µM (top of the series))","activity change, negative = inhibition (at 21.4 µM (top of the series))"
CN1C2CCC1CC(OC(=O)C(O)c1ccccc1)C2 (stereo not drawn),inactive: -11.2%,
CN1[C@@H]2CC[C@H]1CC(OC(=O)[C@@H](O)c1ccccc1)C2 (stereo partly drawn),inactive: -0.233%,inactive: -2.63%
